These are yes or no findings as the source states them, for the method shown. Some entries that bind do so weakly or less than the wild type.
How the values were obtained:
GST-ERβ (human) [1] = molecular target: GST-ERβ (human) (UniProt Q92731); assay: direct interaction ELISA with fusion proteins containing TR or ER LBDs
GST-ERβ (human) [2] = molecular target: GST-ERβ (human) (UniProt Q92731); assay: direct interaction ELISA: GST-LBD on the well, SRC-1 fusion detected by its 179 epitope tag

By UniProt entry, the sequences of proteins in these tests, tags left out. Residues count along the entry.
UniProt Q92731, residues 248-530: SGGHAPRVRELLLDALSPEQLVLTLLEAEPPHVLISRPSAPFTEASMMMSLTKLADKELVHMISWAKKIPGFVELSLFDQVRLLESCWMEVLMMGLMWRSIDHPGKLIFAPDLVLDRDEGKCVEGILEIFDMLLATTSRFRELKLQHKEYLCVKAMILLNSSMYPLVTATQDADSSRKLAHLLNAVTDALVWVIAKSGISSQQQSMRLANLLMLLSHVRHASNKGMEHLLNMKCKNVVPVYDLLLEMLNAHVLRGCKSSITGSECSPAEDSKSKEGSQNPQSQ
UniProt Q15788, residues 597-781: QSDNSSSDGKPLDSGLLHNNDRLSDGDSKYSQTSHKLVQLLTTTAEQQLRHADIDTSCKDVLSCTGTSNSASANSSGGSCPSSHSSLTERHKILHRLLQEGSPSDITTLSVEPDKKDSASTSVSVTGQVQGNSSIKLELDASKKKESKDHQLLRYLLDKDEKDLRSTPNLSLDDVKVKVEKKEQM

binding (GST-ERβ (human) [1]): binds | binding (GST-ERβ (human) [2]): binds
Substance: GST-SRC-1 (from UniProt Q15788 597-781)

Source: patent US6410245B1, “Compositions and methods for detecting ligand-dependent nuclear receptor and coactivator interactions” (priority 1998, dated 2002)
